Primary screen of a compound library

The chains behind the UniProt entries cited, without tags or fusion partners.
UniProt E9BF75, entry or part of it: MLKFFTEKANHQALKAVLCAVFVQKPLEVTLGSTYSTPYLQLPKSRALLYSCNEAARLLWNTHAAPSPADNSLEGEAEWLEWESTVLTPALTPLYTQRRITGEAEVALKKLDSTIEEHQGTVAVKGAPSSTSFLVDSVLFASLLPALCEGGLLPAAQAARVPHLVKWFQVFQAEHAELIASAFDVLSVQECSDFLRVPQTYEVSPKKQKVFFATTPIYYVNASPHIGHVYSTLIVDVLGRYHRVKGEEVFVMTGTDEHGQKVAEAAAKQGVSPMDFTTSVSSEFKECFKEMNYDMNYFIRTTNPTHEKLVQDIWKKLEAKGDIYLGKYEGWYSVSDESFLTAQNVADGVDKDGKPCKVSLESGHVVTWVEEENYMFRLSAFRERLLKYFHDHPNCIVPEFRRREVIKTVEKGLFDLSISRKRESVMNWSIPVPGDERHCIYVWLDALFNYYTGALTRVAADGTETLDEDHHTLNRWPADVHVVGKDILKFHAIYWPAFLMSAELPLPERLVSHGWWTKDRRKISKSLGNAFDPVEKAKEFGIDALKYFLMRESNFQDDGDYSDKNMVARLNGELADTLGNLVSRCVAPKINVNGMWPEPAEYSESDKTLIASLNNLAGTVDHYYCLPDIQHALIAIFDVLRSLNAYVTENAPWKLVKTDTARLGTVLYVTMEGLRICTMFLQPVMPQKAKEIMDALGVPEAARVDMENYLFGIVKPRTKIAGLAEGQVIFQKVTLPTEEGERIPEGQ

LdMetRS: 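Primary screen of methionyl-tRNA synthetase; the read-out is not stated. Target: Methionyl-tRNA synthetase (putative), Leishmania donovani (UniProt E9BF75). The test concentration is not given. The values are filed as inhibition. About 68,000 compounds were tested under these conditions; 0.035% (about 24) showed 50% or more at least once.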
Mtb heat-shock: 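Assay on Mycobacterium tuberculosis, filed only as a heat shock assay from Cornell; the read-out is not stated. The concentration is filed as 10 mM, unlikely as a test dose, so the dose is not known. Direction is inferred from retests: higher values go with stronger inhibition. Size under these conditions: about 69,000 compounds, about 930 of them at 50% or above in at least one test.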

Results are percentages, as filed.
The record does not define 0% and 100%; most values in the screen are far below 50% and negative numbers occur (in some assays of this library far below -100).
Compounds were drawn at random from those tested, without regard to their results.
A dash means the value is not listed here; it may have been measured.

| structure | LdMetRS | Mtb heat-shock |
|---|---|---|
| `COCCN(C)C(=O)Cn1cccc(OC)c1=O` | 11.5% | -19.76% |
| `Cc1ccc(CNC(=O)CN2CCOC(Cn3cncn3)C2)s1` (centres undefined) | 17.05% | 0.09167% |
| `CCOCCN1CCN(CC(=O)NC2(C#N)CCCC2)CC1CC` (centres undefined) | 5.108% | -0.4004% |
| `CCOCCCNC(=O)c1nc2c(s1)CCCN2c1ccc(C)nn1.O=C(O)C(F)(F)F` | - | -20.93% |
| `Cc1cc(C(=O)N2CCc3nc(N4CCCC4)nc(C)c3CC2)c(C)o1` | 16.42% | 28.5% |
| `Cc1nn(C(C)C)c(C)c1NC(=O)Nc1cccnc1N1CCCC1` | 7.796% | -18.73% |
| `COCC(=O)N1CCN(C(C)c2ncc(-c3ccccc3)o2)CC1` (centres undefined) | 11.76% | -16.93% |
| `O=C1CCSCC(C(=O)N2CCC(O)CC2)N1` (centres undefined) | 18.68% | 7.185% |
| `Cc1ccc(NC(=O)Cn2ncc(SCC(N)=O)c(Cl)c2=O)c(F)c1` | 12.93% | 14.88% |
| `COc1c(C)cnc(CNCC(C)C)c1C` | 9.799% | -4.994% |
| `NC(=O)C1CCN(C(=O)Cn2nc(-c3ccccc3)oc2=O)C1` (centres undefined) | 10.24% | 5.004% |
| `CCOCC1CN(C(=O)c2ccoc2)Cc2nn(C)cc21` (centres undefined) | 15.56% | -3.016% |
| `Cn1cc(I)c(C(=O)NC2CCCCC2)n1` | 9.945% | -11.94% |
| `O=S(=O)(c1ccc(Cl)cc1)N1CCN(CCCn2ccnc2)CC1` | 6.406% | -1.614% |
| `O=C(O)C(F)(F)F.O=C(O)C(F)(F)F.[H][C@@]12CCCO[C@]1([H])[C@@H](Oc1ccccn1)CN2c1nnc(C)s1` | - | -34.01% |
| `CN(C)C(=O)c1nnn(-c2ccc(Br)cc2)n1` | 9.051% | 22.75% |
| `Cc1nc(C(C)(C)NCc2nnc(C(C)C)o2)sc1C` | 9.946% | -29.72% |
| `COCCN1CCN(Cc2nc(-c3ccoc3)no2)CC1` | 3.662% | -15.8% |
| `O=C(NC1CCC1)c1c2c(N3CCCC3)ncnc2n2ccccc12` | 3.922% | -13.93% |
| `CC1CN(CC2CCCC2)CCN1c1ccc2nncn2n1` (centres undefined) | 6.789% | 85.93% |
| `CCC(O)CN1CCN(C(=O)c2ccc3c(c2)COC3)CC1` (centres undefined) | 14.93% | -23.62% |
| `Cc1cnc(C(=O)N2C[C@H]3CC[C@@H]2CN(S(=O)(=O)N(C)C)C3)cn1` | 21.11% | - |
| `CCc1nc(C(=O)N2CCN(C)CC2)nn1-c1ccccc1Cl` | 8% | -15.66% |
| `Cc1noc(C)c1CC(=O)N1CCC(Nc2cccnn2)CC1` | 11.48% | -54.21% |
| `CC(C)n1nccc1NC(=O)NCCc1nc2ccc(F)cc2n1C` | 16.17% | -0.8784% |
| `c1ccc(-c2cc(CC3(NCc4ncc[nH]4)COC3)no2)cc1` | 11.86% | -22.3% |
| `COc1ccccc1N1CCC(N2CCOC(C(F)(F)F)C2)CC1` (centres undefined) | 9.415% | -15.93% |
| `c1cc(CN2CC[C@@H]3CN(c4cnccn4)C[C@@H]3C2)ccn1` | 9.384% | - |
| `O=C(O)CCc1cn(C2CCN(c3ncccc3Cl)CC2)nn1` | 1.423% | -8.275% |
| `Cc1cccc(CS(=O)(=O)c2nnc(N3CCOCC3)s2)c1` | 15.47% | 6.692% |
| `O=C(O)[C@@H]1OCC(=O)N(Cc2cccc(Cl)c2)[C@@H]1c1ccccc1` | 2.857% | 5.955% |
| `CCOc1cc(C(=O)N2CCCC(c3nc(C)c(C)s3)C2)ccn1` (centres undefined) | 8.101% | -32.68% |
| `[H][C@@]12CN(Cc3cccnc3)CCO[C@]1([H])CN(C(=O)c1ccncn1)C2` | - | -23.71% |
| `Cc1nccc(C2(C)CCCNC2)n1.Cl.Cl` (centres undefined) | - | -28.48% |
| `O=C(c1ccncc1)N1CCN2C[C@H](Oc3cccnc3)C[C@H]2C1` | 2.5% | - |
| `CCOCCN1CCN(Cc2nnc(C3CC3)o2)CC1` | 9.239% | -0.296% |
| `O=C(O)C(F)(F)F.O=C(O)C(F)(F)F.c1cncc(N2CCCn3nnc(CN4CCCCC4)c3C2)c1` | - | 0.6199% |
| `Cc1noc(C)c1CN(C)Cc1csc(-c2ccccc2F)n1` | 8.424% | 3.741% |
| `Cc1cc(C2CCCN2Cc2cccc(C(=O)Nc3nccs3)c2)no1` (centres undefined) | 13.45% | -4.082% |
| `NC(=O)C(CNC(=O)Cc1ccsc1)Cc1ccc(F)cc1` (centres undefined) | 16.9% | 11.46% |
| `O=C(c1ccc(-n2ccnc2)cc1)N1CCN(c2cnccn2)CC1` | 14.95% | 5.45% |
| `Cc1csc(CN2C[C@H](NC(=O)C3CCOCC3)[C@@H](C(C)C)C2)n1` | 5.672% | -18.58% |
| `c1ccc(CN2CCN3C[C@H](Oc4cccnc4)C[C@H]3C2)nc1` | 14.81% | - |
| `COc1ccc(C2CCN(S(=O)(=O)CCCC#N)CC2)cc1` | 18.12% | -3.567% |
| `CC(=O)N(Cc1ncc(C)o1)C1CCN(Cc2ccccc2C#N)C1` (centres undefined) | 9.836% | -5.932% |
| `c1cncc(CN2CCCC(Nc3ncnc4c3CCNCC4)C2)c1` (centres undefined) | 8.257% | -11.34% |
| `CN1C(=O)C2(CCN(c3ncccc3C(=O)O)CC2)c2ccccc21` | -19.05% | -12.62% |
| `CCC(C)c1cc(C(=O)N(CC(=O)NC)c2cccc(F)c2)on1` (centres undefined) | -2.145% | -15.31% |
| `O=C(CCc1cc2n(n1)CCN(Cc1ncc[nH]1)C2)N1CCCC1` | 7.407% | -1.123% |
| `O=C(COc1ccc(F)cc1)N1CCO[C@H]2[C@@H](OCC3CC3)CC[C@@H]21` | 18.6% | - |
| `O=C(c1ccc2[nH]ccc2c1)N1CC[C@@H]2CN(CC3CC3)CCO[C@@H]2C1` | 14.01% | - |
| `Cc1nc(NC2CCN(C(=O)C3CC3)CC2)c2cnn(C)c2n1` | 19.11% | -2.133% |
| `CCOCC1CN(S(=O)(=O)N(C)C)Cc2cnn(C)c21.O=C(O)C(F)(F)F` (centres undefined) | - | 3.103% |
| `CCOCCCNC(=O)C1(C)CCC(=O)N1c1ccccc1F` (centres undefined) | 5.96% | 3.313% |
| `Cc1cc(S(=O)(=O)Nc2cccc(I)c2)sc1C(=O)O` | -2.135% | -1.369% |
| `COc1ccc2cc(CN(C)CCN3CCCCC3=O)c(=O)[nH]c2c1` | 13.07% | 0.4736% |
| `C[C@@H]1C[C@@H]2CCN(Cc3ccccn3)C[C@H]2O1` | 9.333% | - |
| `C[C@H]1CN(c2ccccn2)C[C@@]12CCN(c1cccnc1)C2=O.O=C(O)C(F)(F)F.O=C(O)C(F)(F)F` | - | 11.35% |
| `[H][C@]12CC[C@]([H])(CN(CC(=O)N(C)C)C1)N(C(=O)Cc1ccccc1Cl)C2` | - | -35.74% |
| `CCCC(=O)N1CC[C@@H]2[C@H](CC1)N(Cc1cccnc1)CCS2(=O)=O` | 21.9% | - |
| `COCCN1CCN(Cc2c(C3CCNCC3)[nH]c3ncccc23)CC1` | 12.5% | - |
| `Cc1noc(CNc2c(N3CCCC3)cccc2N2CCCC2)n1` | 4.011% | 25.1% |
| `CC(C)NC(=O)CN1CCCNCC1` | 15.33% | 12.89% |
| `O=C(Cc1cccs1)N1C[C@@H]2COC[C@]2(COc2cccnc2)C1` | 8.571% | - |
| `CC1CCN(C(=O)c2cccc3ncccc23)CC1` | 15.38% | 5.76% |

6 of the entries, repeated:

structure	LdMetRS	Mtb heat-shock
[H][C@@]12CN(Cc3cccnc3)CCO[C@]1([H])CN(C(=O)c1ccncn1)C2	-	-23.71%
c1ccc(CN2CCN3C[C@H](Oc4cccnc4)C[C@H]3C2)nc1	14.81%	-
NC(=O)C(CNC(=O)Cc1ccsc1)Cc1ccc(F)cc1 (centres undefined)	16.9%	11.46%
CCOCCN1CCN(CC(=O)NC2(C#N)CCCC2)CC1CC (centres undefined)	5.108%	-0.4004%
CCc1nc(C(=O)N2CCN(C)CC2)nn1-c1ccccc1Cl	8%	-15.66%
COc1ccc(C2CCN(S(=O)(=O)CCCC#N)CC2)cc1	18.12%	-3.567%

From ChEMBL document CHEMBL3988442, “University of Dundee, Small-Polar-MMV Screening Library” (2021).